This is one part of the list. Shown are side measurements of this screen, not its main read-out; they come without a call. Most of these compounds were active or inconclusive in the main read-out, so they are no random draw. Potencies come from curve fits of mixed quality, noted in brackets.
Assay: qHTS Assay for Lipid Storage Modulators in Drosophila S3 Cells;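 on cell number change: cells counted by Cell Tracker Red CMTPX staining in the red channel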
Conditions: BODIPY lipid droplet fluorescence, 18-24 h; for cell number change: measured here: cell count max response, cells fed with added oleic acid
Summary of the method: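 Drosophila S3 cells got compounds at several concentrations plus oleic acid (400 uM solution). Laser-scanning cytometry with 488 nm excitation read lipid droplets at 500-530 nm and cells at 575-640 nm. Percent activity was relative to 20 uM Triacsin C.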

[1] = measured here: lipid fluorescence (Fed channel) AC50, cells fed with added oleic acid
[2] = measured here: cell number channel AC50, cells fed with added oleic acid

Compound | cell number change [%] | AC50 [1] | AC50 [2]
C#CCOc1ccccc1C(N)=O | 3.31 | – | –
COc1cc2c(cc1OC)C(c1ccc([N+](=O)[O-])cc1)NC(=O)C2 (stereo unspecified) | – | 164 nM [falling, full curve, poor fit] | –
CCOc1ccccc1C(=O)OCC(=O)NCC1CCCO1 (stereo unspecified) | -8.17 | – | –
Cc1ccc2nc(NC(=O)C3CCN(S(=O)(=O)c4cccs4)CC3)sc2c1 | 13.8 | 461 nM [falling, partial curve, poor fit] | –
Cc1cc(C)cc(NC(=O)COc2coc(CN3CCc4ccccc43)cc2=O)c1 | 21.9 | – | –
CCCCN1C(=O)C2C(C(=O)Nc3cccc(OC)c3)C3C=CC2(O3)C1C(=O)NC1CCCCC1C (stereo unspecified) | -28 | 5800 nM [falling, partial curve, poor fit] | –
CCc1c(C)nc2c(OC)cccc2c1Cl | 33.2 | 16400 nM [rising, single point] | 6510 nM [rising, partial curve]
Cc1ccc(CNC(=O)C(=O)c2cn(CC(=O)N3CCOCC3)c3ccccc23)cc1 | 22.2 | 10300 nM [rising, partial curve] | –
CCOC(=O)c1sc(N)c(C(=O)OCC)c1C | 0.516 | 92 nM [rising, full curve, poor fit] | –
COCCN1CN(S(=O)(=O)c2cccc(Cl)c2)c2nc3ccccc3nc21 | – | 2590 nM [rising, partial curve, poor fit] | –
COc1cc(OC)cc(C(=O)Nc2cc(C)nn2-c2ccccc2)c1 | -45.7 | – | 7310 nM [falling, partial curve]
O=C(NNC(=O)c1ccc2ncccc2c1)c1ccc(Cl)cc1 | 15.4 | – | –
COC(=O)C1C(O)=C(C=NC2CCCCC2)C(=O)CC1(C)C (stereo unspecified) | 0.897 | 29100 nM [falling, single point] | –
Nc1c(S(=O)(=O)c2cccs2)c2nc3ccccc3nc2n1CC1CCCO1 (stereo unspecified) | – | 731 nM [rising, full curve] | 130 nM [rising, full curve, poor fit]
Cc1ccc(S(=O)(=O)c2cc(C#N)c(=O)[nH]c2N)cc1 | 0.287 | 5.17 nM [falling, full curve, poor fit] | –
COc1cccc(N2CCN(CC(=O)NC(=O)NCc3ccco3)CC2)c1 | 9.91 | – | –
CC(=O)Nc1ccc(S(=O)(=O)NC2CC(=O)N(c3ccc(C)cc3)C2)cc1 (stereo unspecified) | 17.9 | 18400 nM [rising, single point] | –
C/C(=N\NC(=S)Nc1ccc(C)cc1)c1cc2ccccc2o1 | -22.6 | 2060 nM [rising, partial curve] | –
COc1ccc(C(=O)COC(=O)[C@H](C)Nc2ccc(C(F)(F)F)cc2[N+](=O)[O-])cc1 | -23.1 | 23100 nM [falling, partial curve] | 5.17 nM [falling, full curve, poor fit]
CCCCn1c(=O)c(CC(C)=O)nc2ccccc21 | 5.12 | 3660 nM [rising, partial curve] | –
O=C(NCCN1CCCCCC1)C1CCCN1S(=O)(=O)c1cccc2nsnc12 (stereo unspecified) | -3.6 | 164 nM [rising, full curve, poor fit] | –

Entries of single compounds, looked up by structure:
`CCc1c(C)nc2c(OC)cccc2c1Cl` as listed: cell number change [%]: 33.2; AC50 [1]: 16400 nM [rising, single point]; AC50 [2]: 6510 nM [rising, partial curve]
`CCCCn1c(=O)c(CC(C)=O)nc2ccccc21` as listed: cell number change [%]: 5.12; AC50 [1]: 3660 nM [rising, partial curve]
`Nc1c(S(=O)(=O)c2cccs2)c2nc3ccccc3nc2n1CC1CCCO1` (stereo unspecified) as listed: AC50 [1]: 731 nM [rising, full curve]; AC50 [2]: 130 nM [rising, full curve, poor fit]
`C#CCOc1ccccc1C(N)=O` as listed: cell number change [%]: 3.31

(more compounds)

Compound | cell number change [%] | AC50 [1] | AC50 [2]
Cc1c(CCOC(=O)c2cc([N+](=O)[O-])cc([N+](=O)[O-])c2)sc[n+]1CCCCS(=O)(=O)[O-] | 24.6 | 32600 nM [rising, single point] | –
Cc1ccc(C)c(NC(=O)c2cc3c([nH]c4ccccc43)c(C)n2)c1 | -16.1 | – | –
O=C(NN1C(=O)c2ccccc2NC1c1ccc([N+](=O)[O-])o1)c1ccc([N+](=O)[O-])cc1 (stereo unspecified) | -35.8 | 2060 nM [falling, partial curve, poor fit] | 29100 nM [falling, single point]
O=C(NCc1ccco1)/C(=C\c1ccccc1)NC(=O)c1ccccc1 | -13.3 | – | –
CCOC(=O)c1cc(CNC(=O)c2c(C)oc3c2CCCC3)c(C)o1 | -9.98 | 20600 nM [rising, single point] | –
CCCC(=O)NC(=S)Nc1ccccc1C(F)(F)F | – | 32600 nM [falling, single point] | 5.8 nM [falling, full curve, poor fit]
COc1cccc2c1nc(C)c1cc(C)oc12 | 26.7 | 651 nM [rising, full curve] | –
Cc1cc(C(F)(F)F)nn2cnnc12 | 24.9 | – | –
CCCn1ncc(CN2CCC(n3nccc3NC(=O)CCc3ccccc3)CC2)c1C | -31.5 | 29100 nM [falling, single point] | 10300 nM [falling, partial curve]
COc1ccc(-c2oc3ncnc(NCCCN4CCOCC4)c3c2-c2ccc(OC)cc2)cc1 | -56.1 | – | 1640 nM [rising, partial curve]
CC(C)n1cc(/C=N/Nc2ccc(Cl)c(C(=O)O)c2)c2ccccc21 | 2.93 | – | 5.17 nM [rising, full curve, poor fit]
Cc1ccccc1[C@]1(C)ON(c2ccccc2C(F)(F)F)C1=O | -89.4 | 103 nM [falling, full curve, poor fit] | 4110 nM [falling, partial curve]
COc1cccc(C2=CC(=O)C[C@H](c3ccc(F)cc3)C2)c1OC | -51.2 | – | 5.8 nM [falling, full curve, poor fit]
O=C(Nc1ccc2c(c1)OCO2)c1n[nH]c(=O)c2ccccc12 | 2.34 | 6510 nM [rising, single point] | –
Cc1ccc(C)c(/C=C(\C(=O)O)c2ccc(S(=O)(=O)N3CCCCC3)s2)c1 | 38.3 | 731 nM [rising, partial curve, poor fit] | 920 nM [rising, full curve]
CC(C)N(C(=O)COC(=O)[C@H](C)NC(=O)c1ccco1)c1ccccc1 | 22.3 | 18400 nM [falling, single point] | –
CC1(C)CCSC(/C=C/c2ccccc2)=N1 | -30.8 | – | 29100 nM [falling, single point]
COC(C[C@H](O)C[C@H](O)[C@H](C)OCc1ccccc1)OC | 16.3 | 116 nM [rising, single point] | –
O=C(Nc1ccc2c(c1)OCO2)c1cc(Cl)ccn1 | -11.3 | 4.61 nM [falling, full curve, poor fit] | –
CC(C)OC(=O)C(CC(=O)O)NCc1ccccc1 (stereo unspecified) | 7.78 | – | –
Cc1ccc(O)c(NC(=O)c2noc3c2CCCCC3)c1 | -41.2 | 14600 nM [falling, partial curve] | 8200 nM [falling, partial curve]

Compound | cell number change [%] | AC50 [1] | AC50 [2]
Cc1c(C(=O)O)cccc1-n1c(C)cc(/C=C(/C#N)C(=O)NCc2ccccc2)c1C | 45.2 | – | –
CCOc1ccc(-n2nnnc2-c2nc3ccccc3s2)cc1 | -1.57 | – | –
CCOC(=O)C1(Cc2ccccc2)CCCN(C(=O)c2cn[nH]c2)C1 (stereo unspecified) | – | 6510 nM [rising, single point] | –
CC(C)(C)NC(=O)NC(=O)CN1CCCCC1 | -27 | – | –
COc1cc(C(=O)NCCc2c[nH]c3ccccc23)ccc1OCc1c(C)noc1C | – | – | 411 nM [rising, full curve, poor fit]
COc1ccc2[nH]c(=O)c(CN(CCCN(C)C)C(=O)Nc3ccccc3)cc2c1 | -1.05 | – | –
Cc1cc(Cl)c(S(=O)(=O)N2CCN(c3ccc(F)cc3)CC2)cc1OCC(=O)NC1CCCCC1 | – | 29100 nM [rising, single point] | 6510 nM [rising, single point]
COc1ccc(NC(=O)CSc2nc(O)cc(=O)n2-c2ccc(OC)cc2)cc1 | 23 | – | –
CCOc1ccc(NC(=O)CSc2ccc3nnc(-c4cccnc4)n3n2)cc1 | -1.51 | 6510 nM [rising, single point] | 820 nM [rising, partial curve]
COc1ccc(CCN(C(=O)c2ccc(F)cc2)C2=CC3CCC(C2)N3C)cc1OC (stereo unspecified) | 1.9 | 731 nM [falling, full curve, poor fit] | –
S=C(NC1CCCCC1)NN(c1ccccc1)c1ccccc1 | 18.3 | 29100 nM [rising, single point] | –
COc1ccc(/C=C/C(=O)OCC(=O)Nc2ccc3[nH]c(=O)[nH]c3c2)cc1OC | – | – | 146 nM [rising, full curve, poor fit]
CS(=O)(=O)N1CCC(C(=O)N2CCC(Cc3ccccc3)CC2)CC1 | – | 2060 nM [rising, single point] | –
COc1ccc(C(=O)N/N=C\c2coc3ccc(Cl)cc3c2=O)cc1 | – | 29100 nM [falling, single point] | –
CCNCc1cc2cc(C)ccc2[nH]c1=O | 17.2 | – | –
Cc1cc(NCc2ccc(F)cc2)nc2cc(Cl)ccc12 | -26.5 | 326 nM [rising, partial curve, poor fit] | –
CCn1c(=NC(=O)CN2C(=O)CCC2=O)sc2c(OC)ccc(OC)c21 | 0.866 | 51.7 nM [rising, full curve, poor fit] | –
COc1ccc2[nH]c(C)c(CCN3C(=O)C4CC=CCC4C3=O)c2c1 (stereo unspecified) | 2.18 | – | –
CC(C)CN(C(=O)C(C)N1C(=O)c2ccccc2C1=O)c1c(N)n(Cc2ccccc2)c(=O)[nH]c1=O (stereo unspecified) | – | 731 nM [rising, full curve] | –
COc1ccc(CN2CCN(C(=O)c3c(-c4ccccc4)noc3C)CC2)cc1F | -9.34 | 29100 nM [falling, single point] | –
O=C(c1cccs1)N(Cc1ccc(F)cc1)C1CCS(=O)(=O)C1 (stereo unspecified) | -14.4 | 580 nM [falling, single point] | 6510 nM [rising, single point]
